According to US20040214721A1 (priority 2001, published 2004):
Read-outs that look alike come from different tables or passages of the source. Some entries share one result that the patent states for a list of compounds.

What was measured:
Format in all cases: in vivo
[1] = tested on: Phytophthora; settings: 200 ppm; tomato plants cv. Roter Gnom sprayed 2 days before inoculation; assessed after 4 days at +18° C., 95% r. h.
[2] = tested on: Plasmopara viticola; experiment: D-1: Action against Plasmopara viticola (downy mildew) on vines; settings: 200 ppm; grape seedlings cv. Gutedel sprayed 1 day before inoculation; assessed after 6 days at +21° C., 95% r. h.
[3] = tested on: Phytophthora; settings: 200 ppm; potato plants cv. Bintje sprayed 2 days before inoculation; assessed after 4 days at +18° C., 95% r. h.

SMILES	inhibit fungal infestation [1]	inhibit fungal infestation [2]	inhibit fungal infestation [3]
CCS(=O)(=O)NC(C(=O)Nc1ccccc1-c1ccc(OCc2ccccc2)c(OC)c1)C(C)C (stereo not drawn) [Compound 1.100]	at least 80%	at least 80%	
C#CCOc1ccc(C2CCCCC2NC(=O)C(NS(C)(=O)=O)C(C)C)cc1OC (stereo not drawn) [Compound 12.123]	at least 80%	at least 80%	
CCC#CCOc1ccc(C2CCCCC2NC(=O)C(NS(=O)(=O)CC)C(C)C)cc1OC (stereo not drawn) [Compound 12.095]	at least 80%	at least 80%	
C#CCOc1ccc(-c2ccccc2NC(=O)C(NS(=O)(=O)CC)C(C)C)cc1OC (stereo not drawn) [Compound 1.093]		at least 80%	
C#CCOc1ccc(C2CCCCC2NC(=O)C(NS(=O)(=O)N(C)C)C(C)C)cc1OC (stereo not drawn) [Compound 12.177]	at least 80%	at least 80%	
CCC#CCOc1ccc(C2CCCCC2NC(=O)C(NS(=O)(=O)N(C)C)C(C)C)cc1OC (stereo not drawn) [Compound 12.181]	at least 80%	at least 80%	at least 80%
COc1cc(-c2ccccc2NC(=O)C(NS(=O)(=O)N(C)C)C(C)C)ccc1OCC#Cc1ccccc1 (stereo not drawn) [Compound 1.202]	at least 80%	at least 80%	at least 80%
CCC#CCOc1ccc(C2CCCCC2NC(=O)C(NS(C)(=O)=O)C(C)C)cc1OC (stereo not drawn) [Compound 12.127]	at least 80%		at least 80%
C#CCOc1ccc(C2CCCCC2NC(=O)C(NS(=O)(=O)CC)C(C)C)cc1OC (stereo not drawn) [Compound 12.093]	at least 80%	at least 80%	
CCS(=O)(=O)NC(C(=O)Nc1ccccc1-c1ccc(OCC#Cc2ccc(Cl)cc2)c(OC)c1)C(C)C (stereo not drawn) [Compound 1.107]	at least 80%	at least 80%	at least 80%
COc1cc(-c2ccccc2NC(=O)C(NS(=O)(=O)N(C)C)C(C)C)ccc1OCC#Cc1ccc(Cl)cc1 (stereo not drawn) [Compound 1.204]	at least 80%	at least 80%	at least 80%
CCC#CCOc1ccc(-c2ccccc2NC(=O)C(NS(C)(=O)=O)C(C)C)cc1OC (stereo not drawn) [Compound 1.127]	at least 80%	at least 80%	at least 80%
C#CCOc1ccc(-c2ccccc2NC(=O)C(NS(=O)(=O)N(C)C)C(C)C)cc1OC (stereo not drawn) [Compound 1.177]		at least 80%	
CCS(=O)(=O)NC(C(=O)Nc1ccccc1-c1ccc(OCCOc2ccccc2)c(OC)c1)C(C)C (stereo not drawn) [Compound 1.110]	at least 80%	at least 80%	
CCC#CCOc1ccc(-c2ccccc2NC(=O)C(NS(=O)(=O)CC)C(C)C)cc1OC (stereo not drawn) [Compound 1.095]	at least 80%	at least 80%	
CC#CCOc1ccc(-c2ccccc2NC(=O)C(NS(C)(=O)=O)C(C)C)cc1OC (stereo not drawn) [Compound 1.126]	at least 80%	at least 80%	at least 80%
COc1cc(-c2ccccc2NC(=O)C(NS(=O)(=O)N(C)C)C(C)C)ccc1OCC#Cc1ccc(F)cc1 (stereo not drawn) [Compound 1.205]	at least 80%	at least 80%	at least 80%
COc1cc(-c2ccccc2NC(=O)C(NS(=O)(=O)N(C)C)C(C)C)ccc1OCCOc1ccc(F)cc1 (stereo not drawn) [Compound 1.210]	at least 80%	at least 80%	at least 80%
CC#CCOc1ccc(-c2ccccc2NC(=O)C(NS(=O)(=O)CC)C(C)C)cc1OC (stereo not drawn) [Compound 1.094]	at least 80%	at least 80%	
CCOc1ccc(-c2ccccc2NC(=O)C(NS(C)(=O)=O)C(C)C)cc1OC (stereo not drawn) [Compound 1.117]	at least 80%	at least 80%	
CCOc1ccc(-c2ccccc2NC(=O)C(NS(=O)(=O)CC)C(C)C)cc1OC (stereo not drawn) [Compound 1.087]	at least 80%	at least 80%	
COc1cc(-c2ccccc2NC(=O)C(NS(=O)(=O)N(C)C)C(C)C)ccc1OCCOc1ccc(Cl)cc1 (stereo not drawn) [Compound 1.211]	at least 80%	at least 80%	at least 80%
